Screen size: about 580,000 compounds; about 6,100 (1.1%) were called active. This list was built around the results that the source calls inconclusive (neither active nor inactive); the mix of calls is not that of the screen. Calls come from the whole dose curve; as a rule, active = well fitted inhibition curve with a large enough effect; inconclusive = small, poorly fitted or top-dose-only effect, or another doubt; inactive = no such curve, though single readings can be large or run the other way. Where the call is inconclusive, the potency comes from a doubtful curve fit.
Target: Polyunsaturated fatty acid lipoxygenase ALOX12 (Homo sapiens) (UniProt P18054)
Assay: Primary qHTS assay for inhibitors of human arachidonate 12S-lipoxygenase (ALOX12): Round 2
Conditions: purified 12hLO, xylenol orange hydroperoxide absorbance; activity change, negative = inhibition: at 108 µM (top of the series) unless noted
Outline: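 Purified human 12hLO at 150 nM in 25 mM Hepes, 0.01% Triton X-100, pH 7.0, preincubated 15 min at room temperature with compound. Reaction started with 40 uM arachidonic acid, 30 min at room temperature. Hydroperoxide measured by Fe-xylenol orange, 573/405 nm absorbance ratio.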
% is set by controls: 0 for no effect and ±100 for the full control effect; potency is the fitted concentration of half-maximal effect.

Amino acid sequences for entries named in this document (tags omitted).
UniProt P18054, whole entry, looked up: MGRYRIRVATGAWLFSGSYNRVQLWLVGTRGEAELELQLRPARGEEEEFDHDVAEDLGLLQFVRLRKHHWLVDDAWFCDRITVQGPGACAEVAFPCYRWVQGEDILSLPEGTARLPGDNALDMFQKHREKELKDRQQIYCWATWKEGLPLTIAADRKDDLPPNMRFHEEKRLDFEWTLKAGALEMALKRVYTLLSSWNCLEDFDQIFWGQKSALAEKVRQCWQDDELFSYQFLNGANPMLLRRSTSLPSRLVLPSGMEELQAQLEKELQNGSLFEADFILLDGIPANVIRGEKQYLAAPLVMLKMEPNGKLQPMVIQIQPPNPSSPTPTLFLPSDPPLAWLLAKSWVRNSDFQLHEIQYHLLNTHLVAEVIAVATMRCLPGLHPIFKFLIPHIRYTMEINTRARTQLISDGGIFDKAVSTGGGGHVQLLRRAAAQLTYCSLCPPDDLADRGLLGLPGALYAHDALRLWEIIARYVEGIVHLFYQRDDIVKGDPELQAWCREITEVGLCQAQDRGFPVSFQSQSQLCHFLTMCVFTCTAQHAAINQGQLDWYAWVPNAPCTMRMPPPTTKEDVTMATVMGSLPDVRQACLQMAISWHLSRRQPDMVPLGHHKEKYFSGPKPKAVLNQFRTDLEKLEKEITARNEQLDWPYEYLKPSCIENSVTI

Structure (SMILES)	Potency	activity change, negative = inhibition
O=C1N/C(=N\S(=O)(=O)Cc2ccccc2)S/C1=C/c1cccc([N+](=O)[O-])c1	inconclusive: 112 µM [inhibitor, single point]	–
O=[N+]([O-])c1ccc(/C=N/Nc2cc(Cl)nc(-c3ccccc3)n2)cc1	–	inactive: 251%
C#CCOCCOCCOCCNc1nc(N2CCN(C(=O)Cn3cc(CC(C)O)nn3)CC2)nc(N2CCN(C(=O)[C@H](CCCCN)n3cc(CCC(=O)O)nn3)CC2)n1 (stereo not given in full)	active: 15.8 µM	–
CC(C)(C)c1ccc(OCCOc2ccccc2/C=C(/C#N)C(N)=O)cc1	inconclusive: 44.7 µM [inhibitor, single point]	–
CCOc1ccc(Oc2ccc(NC(=O)Cn3ncc4ccccc4c3=O)cc2)cc1	inconclusive: 56.2 µM [inhibitor, partial curve, poor fit]	–
Cc1ccc(C)c(-n2c(Cc3cc(=O)[nH]c(=O)[nH]3)nnc2SCC(=O)c2ccccc2)c1	inconclusive: 89.1 µM [inhibitor, partial curve, poor fit]	–
N#CCc1ccc(OCc2ccc(C#N)cc2)cc1	inconclusive: 100 µM [inhibitor, single point]	–
COc1ccc(-n2c(C)csc2=S)cc1	inconclusive: 112 µM [inhibitor, partial curve, poor fit]	–
O=c1[nH]c(=O)n(C2CC(O)C(CO)O2)cc1Br (stereo not given)	–	inactive: -10.5%
C(=C\c1ccccc1)/CN1CCN(C(c2cc3ccccc3o2)c2nnnn2C2CCCC2)CC1 (stereo not given)	–	inactive: -17.3%
COc1ccc2c(c1)CCC(C)N2C(=O)C(=O)c1c[nH]c2ccccc12 (stereo not given)	–	inactive: 1.28%
CCCCNc1ccc(C(CC(N)=O)NC(=O)Cc2cccc3ccccc23)cc1[N+](=O)[O-] (stereo not given)	inconclusive: 39.8 µM [inhibitor, partial curve, poor fit]	–
CCCCNc1c(-c2ccc(SC3CCCCC3)c(OC)c2)nc2ccc(Cl)cn12	inconclusive: 7.08 µM [inhibitor, full curve, poor fit]	–
CCC1(CO)CCCN(Cc2ccc3c4c(cccc24)C(=O)OC3)C1 (stereo not given)	inconclusive: 8.91 µM [inhibitor, full curve]	–
Cn1nccc1/C=N\NC(=O)c1ccc(Cl)cc1	inconclusive: 50.1 µM [inhibitor, single point]	–
CCOC(=O)c1sc2nc(C)c3c(c2c1N)CC(C)(C)OC3	inactive	–
C[C@H](NC(=O)OCc1ccccc1)c1nnc([C@H](C)NC(=O)OCc2ccccc2)o1	inconclusive: 112 µM [inhibitor, single point]	–
S=c1nccc(-c2ccc(Cl)cc2)[nH]1	active: 12.6 µM	–
Cc1ccc(CNC(=O)C(C)N2CCN(c3ccc([N+](=O)[O-])c4cnccc34)CC2)cc1 (stereo not given)	inconclusive: 50.1 µM [inhibitor, partial curve, poor fit]	–
CC1(C)CC(=O)C2=C(C1)OC(N)=C(C#N)C2c1cccnc1 (stereo not given)	–	inactive: -14.4%
Cc1ccc(Cn2ccc(NC(=O)c3cc(-c4ccc(Cl)cc4)on3)n2)cc1	inconclusive: 126 µM [inhibitor, partial curve, poor fit]	–
COc1cccc(C2CC3(CC(C)(C)NC(=S)N3)Oc3cc(O)ccc32)c1 (stereo not given)	inconclusive: 31.6 µM [inhibitor, partial curve]	–

Structure (SMILES)	Potency	activity change, negative = inhibition
CC(=O)c1c(N2CCN(Cc3ccccc3)CC2)[nH]c(-c2ccccc2)nc1=S	active: 39.8 µM	–
O=C(O)c1cc2n(n1)CCN(Cc1ccccc1Cl)C2=O	–	inactive: -8.34%
O=C(c1ccc2c(c1)OCO2)N1CCn2c(nnc2-c2ccc(Cl)cc2)C1	–	inactive: 2.68% [at 6.33 µM]
CCc1ccc(-n2c(C)n[nH]c2=S)cc1	inconclusive: 70.8 µM [inhibitor, partial curve, poor fit]	–
Cc1c(C(=O)N2CCOCC2)sc(NC(=O)c2ccccc2F)c1C#N	inconclusive: 126 µM [inhibitor, single point]	–
COc1ccc(C(=O)N2CCC3(CC2)NC(=O)N(c2ccccc2Cl)N3)cc1	active: 2.24 µM	–
Cc1ccccc1C1CC(=O)N2CN(Cc3ccccc3)CSC2=C1C#N (stereo not given)	inconclusive: 112 µM [inhibitor, single point]	–
CC(=O)Nc1ccc(-c2nnc(SCC(=O)c3ccc4c(c3)Cc3ccccc3-4)n2C)cc1	inconclusive: 50.1 µM [inhibitor, partial curve, poor fit]	–
Cc1cc(C)n(CCC(=O)NCC2Cn3cccc3C(=O)N2Cc2ccccc2)n1 (stereo not given)	–	inactive: 30.1%
CSc1ccc(NC(=O)NCCCN2CCC(Cc3ccccc3)CC2)cc1	inconclusive: 50.1 µM [inhibitor, partial curve, poor fit]	–
COc1ccccc1-n1c(=O)c2c3c(sc2n(Cc2ccccc2F)c1=O)CN(C(C)=O)CC3	inconclusive: 100 µM [inhibitor, partial curve, poor fit]	–
Cc1ccc(S(=O)(=O)c2cn(CC(=O)Nc3ccc4c(c3)OCO4)c3ccccc3c2=O)cc1C	inconclusive: 89.1 µM [inhibitor, partial curve, poor fit]	–
CCC(C)N(C(=O)COC(=O)c1cc([N+](=O)[O-])ccc1N)C1CCS(=O)(=O)C1 (stereo not given)	inconclusive: 50.1 µM [inhibitor, partial curve, poor fit]	–
CCCc1nc(SCc2cccnc2)c2c(=O)n(C)c(=O)n(C)c2n1	–	inactive: 15.1%
N#Cc1cc2c(nc1N1CCN(C(C(=O)O)c3c[nH]c4cc(F)ccc34)CC1)CCCC2 (stereo not given)	inconclusive: 89.1 µM [inhibitor, single point]	–
COc1ccc(-c2nc3cnc(Nc4ccc(F)c(Cl)c4)cc3n2C)cc1OC	inconclusive: 50.1 µM [inhibitor, partial curve, poor fit]	–
CN(Cc1cccc(-c2nn[nH]n2)c1)Cc1cn(-c2ccccc2)nn1	inconclusive: 7.94 µM [inhibitor, full curve, poor fit]	–
CCOc1cc(CNCc2ccc(C(=O)O)cc2)ccc1OC	–	inactive: -32.2%
CCCCC[C@@H](C)N1C[C@H](COCc2ccccc2)Oc2cc(N3CCC[C@@H]3COC)ccc2S1(=O)=O	inconclusive: 5.01 µM [inhibitor, full curve, poor fit]	–
CC(C)CCN1C(=O)c2ccccc2C1c1c[nH]c2ccccc12 (stereo not given)	inconclusive: 0.631 µM [inhibitor, full curve, poor fit]	–
O=C(NCc1cccnc1)c1cc(C2CCCCN2C(=O)CCCc2ccccc2)on1 (stereo not given)	inconclusive: 126 µM [inhibitor, partial curve, poor fit]	–
Cc1cccc(C(=O)NC(=S)Nc2ccc(S(=O)(=O)N3CCN(C)CC3)cc2)c1	inconclusive: 50.1 µM [inhibitor, partial curve, poor fit]	–

Structure (SMILES)	Potency	activity change, negative = inhibition
CCOc1ccc(N(CC(=O)N/N=C/c2cc([N+](=O)[O-])ccc2Cl)S(C)(=O)=O)cc1	–	inactive: 9.37%
COc1ccc(-n2[nH]c(CSc3nnnn3-c3ccccc3)cc2=O)cc1	inconclusive: 50.1 µM [inhibitor, partial curve, poor fit]	–
CSc1nc(N)c2ncn([C@@H]3O[C@H](COP(=O)(O)OP(=O)(O)OP(=O)(O)O)[C@@H](O)[C@H]3O)c2n1	inconclusive: 44.7 µM [inhibitor, partial curve]	–
O=C(CC[C@@H]1CNC(=O)[C@@H]2C[C@H](NC(=O)c3cccc(F)c3)CN12)NCc1ccc(F)cc1	inconclusive: 20 µM [inhibitor, full curve]	–
O=C(c1c[nH]c2ncccc12)N1CCC(N2CCCC2)CC1	–	inactive: 29.1% [at 176 µM]
CONC(=O)c1cccc(NC(=O)c2cccs2)c1	–	inactive: -56.6%
CN(Cc1ccccc1)C1CCOC2(CCN(C(=O)NCCc3ccccc3)CC2)C1 (stereo not given)	–	inactive: 18.3%
CC(CCc1ccccc1)NC(=O)CSc1nc2cc(Cl)ccc2s1 (stereo not given)	–	inactive: 8.56%
CCCOc1ccc(C(=O)CCN2CCCCC2)cc1	–	inactive: 232%
N#CC1=C(N)N(c2c(F)cccc2F)C2=C(C(=O)CCC2)C1c1ccc(F)cc1 (stereo not given)	–	inactive: -12%
COc1ccc(/C=C2/N=C(c3ccc(Cl)cc3Cl)NC2=O)cc1OC	inconclusive: 70.8 µM [inhibitor, single point]	–
O=C(NCc1ccco1)c1cccc2c1C(=O)c1ccc(N3CCCC3)cc1S2(=O)=O	inconclusive: 8.91 µM [inhibitor, full curve, poor fit]	–
Cc1ccc(-n2c(=O)c3sccc3n(CC(=O)NCc3ccco3)c2=O)cc1	–	inactive: 0%
CC(CNC(=S)Nc1cc(F)cc(F)c1)CSc1ccc(Cl)cc1 (stereo not given)	inconclusive: 39.8 µM [inhibitor, partial curve, poor fit]	–
COc1cccc(NC(=O)c2cnc(SC)nc2)c1	inconclusive: 112 µM [inhibitor, single point]	–
CN(Cc1ccccc1)c1ccccc1NCC(=O)NC(N)=O	inconclusive: 39.8 µM [inhibitor, partial curve]	–
O=C(c1cc(-c2cnccc2Cl)c2cccn2n1)N1CCCC1	inconclusive: 112 µM [inhibitor, single point]	–
Cc1ccc(CNC(=O)c2cc(=O)c3cc(C)cc(C)c3o2)cc1	inconclusive: 39.8 µM [inhibitor, partial curve, poor fit]	–
Cc1nn(Cc2ccccc2)c2c1C(c1ccco1)C(C#N)=C(N)O2 (stereo not given)	inconclusive: 44.7 µM [inhibitor, partial curve, poor fit]	–
Cc1ccc(C(O)CNC(=O)Nc2c(C)cccc2C)cc1 (stereo not given)	inconclusive: 28.2 µM [inhibitor, partial curve, poor fit]	–
CNC(=O)NC(=S)NC(=O)c1ccc(OC)cc1	inconclusive: 50.1 µM [inhibitor, partial curve, poor fit]	–

Pulled one by one from the entries so far (four):
Structure (SMILES)	Potency	activity change, negative = inhibition
CSc1nc(N)c2ncn([C@@H]3O[C@H](COP(=O)(O)OP(=O)(O)OP(=O)(O)O)[C@@H](O)[C@H]3O)c2n1	inconclusive: 44.7 µM [inhibitor, partial curve]	–
CC(CCc1ccccc1)NC(=O)CSc1nc2cc(Cl)ccc2s1 (stereo not given)	–	inactive: 8.56%
COc1ccc(-n2[nH]c(CSc3nnnn3-c3ccccc3)cc2=O)cc1	inconclusive: 50.1 µM [inhibitor, partial curve, poor fit]	–
CN(Cc1ccccc1)c1ccccc1NCC(=O)NC(N)=O	inconclusive: 39.8 µM [inhibitor, partial curve]	–

Reference: PubChem BioAssay AID1671190 (National Center for Advancing Translational Sciences (NCATS), 2021)
